Data from US20040220164A1, “Triaza compound immunoregulatory agents” (priority 2001, published 2004).
At least one compound was matched to its structure with a doubt left.

Target: CD4 (Homo sapiens, UniProt P01730)
Assay: Cell surface CD4 expression by flow cytometry (anti-CD4 mAb Leu3a-PE)
Assay type: cell-based
Parameters: To study the effect of the CADA derivatives on surface CD4 antigen expression, MT-4 and SupT1 cells were incubated; endogenous in cells; host or cells: MT-4, SupT1, PBMC
Details: SupT1 cells, ATA 24 μM, CADA 16 μM, PMA 8 nM (FIG. 4)
Description: FIGS. 2A-2C. Surface CD4 expression in MT-4 cell line, SupT1 cell line and PBMCs after incubation with CADA hydrochloride (3.2 or 16 μM) for 1 and 4 days. (A) Cell surface CD4 expression of control MT-4 cells and MT-4 cells treated with CADA (3.2 μM) for 1 day or 4 days. (B) Cell surface CD4 expression of control SupT1 cells and SupT1 cells treated with CADA (3.2 μM) for 1 day or 4 days. (C) Cell surface CD4 expression of control PBMCs and PBMCs treated with CADA (16 μM) for 1 day or 4 days. The cells were stained with anti-CD4 mAb (Leu3a-PE). Percentages of fluorescent cells and MFI (mean fluorescence intensity) are indicated in each histogram.
FIG. 4. Comparison of the effects on CD4 modulation by ATA (24 μM), CADA hydrochloride (16 μM) and PMA (8 nM) in SupT1 cells after incubation with the compounds analyzed after 20 minutes, 4 hours, 1 day and 4 days.
Cells were incubated with CADA hydrochloride and the CD4 expression on the cell surface was analyzed. […] In peripheral blood mononuclear cells (PBMCs), the percentage of CD4 expression decreased to 0.2% after incubation with CADA (16 μM) for 4 days (FIG. 2).
Expression of various other surface antigens was also examined in MT-4 cells, SupT1 cells and PBMCs after incubation with CADA (16 μM) or CADA-free medium at 37° C. for 4 days. […] Then the cells were washed, fixed with 1% formaldehyde and analyzed by flow cytometry. […]

SMILES: O=C(O)C1=CC(=C(c2ccc(O)c(C(=O)O)c2)c2ccc(O)c(C(=O)O)c2)C=CC1=O [ATA, aurintricarboxylic acid, reference compound]
- percentage of cell surface CD4 expression (20 minutes): 21.6%
- percentage of cell surface CD4 expression (4 hours): recovered quickly to normal levels
